These are yes or no findings as the source states them, for the method shown. In cells and extracts the contact can be indirect. These calls come from enrichment with a bait or labelling near it, and not all partners need be listed. For part of these data: Sequences can lack the tags named with a protein.
Legend:
Test in all cases: proximity labelling; BioID2 fused to the carboxy terminus of the bait in stable doxycycline-inducible 293T lines; 50 µM biotin 16 hr; RIPA lysis, streptavidin beads, on-bead digestion, MS; hits ≥threefold over cytoplasmic BioID2 control or absent from it, p < 0.05, three of four replicates
[1] = molecular target: FHIP2B tagged at the carboxy terminus with BioID2 and 3xFLAG (human) (UniProt Q86V87)
[2] = molecular target: FHIP2A tagged at the carboxy terminus with BioID2 and 3xFLAG (human) (UniProt Q5W0V3)
[3] = molecular target: FHIP1A tagged at the carboxy terminus with BioID2 and 3xFLAG (human) (UniProt Q05DH4)

Amino acid sequences for entries named in this document (tags omitted). Residues count along the entry.
UniProt Q86V87: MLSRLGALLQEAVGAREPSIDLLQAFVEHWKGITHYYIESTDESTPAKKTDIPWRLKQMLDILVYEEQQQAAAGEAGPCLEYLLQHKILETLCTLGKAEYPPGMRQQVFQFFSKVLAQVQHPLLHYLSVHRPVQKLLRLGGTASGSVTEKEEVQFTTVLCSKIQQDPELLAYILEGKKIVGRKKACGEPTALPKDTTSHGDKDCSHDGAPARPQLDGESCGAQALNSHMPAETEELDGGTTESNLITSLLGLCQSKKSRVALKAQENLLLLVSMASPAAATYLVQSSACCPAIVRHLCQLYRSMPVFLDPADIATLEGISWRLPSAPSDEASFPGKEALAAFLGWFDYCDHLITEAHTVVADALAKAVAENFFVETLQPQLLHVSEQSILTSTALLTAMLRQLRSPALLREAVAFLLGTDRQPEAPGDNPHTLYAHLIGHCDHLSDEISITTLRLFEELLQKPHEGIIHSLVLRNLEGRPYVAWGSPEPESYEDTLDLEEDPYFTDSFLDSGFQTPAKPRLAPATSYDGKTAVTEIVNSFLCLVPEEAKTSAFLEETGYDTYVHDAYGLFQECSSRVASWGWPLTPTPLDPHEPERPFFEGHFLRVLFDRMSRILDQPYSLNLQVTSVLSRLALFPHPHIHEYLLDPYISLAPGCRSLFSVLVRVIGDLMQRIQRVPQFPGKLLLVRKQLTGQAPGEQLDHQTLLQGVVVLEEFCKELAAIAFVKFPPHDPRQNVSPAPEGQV
UniProt P38646, residues 47-679: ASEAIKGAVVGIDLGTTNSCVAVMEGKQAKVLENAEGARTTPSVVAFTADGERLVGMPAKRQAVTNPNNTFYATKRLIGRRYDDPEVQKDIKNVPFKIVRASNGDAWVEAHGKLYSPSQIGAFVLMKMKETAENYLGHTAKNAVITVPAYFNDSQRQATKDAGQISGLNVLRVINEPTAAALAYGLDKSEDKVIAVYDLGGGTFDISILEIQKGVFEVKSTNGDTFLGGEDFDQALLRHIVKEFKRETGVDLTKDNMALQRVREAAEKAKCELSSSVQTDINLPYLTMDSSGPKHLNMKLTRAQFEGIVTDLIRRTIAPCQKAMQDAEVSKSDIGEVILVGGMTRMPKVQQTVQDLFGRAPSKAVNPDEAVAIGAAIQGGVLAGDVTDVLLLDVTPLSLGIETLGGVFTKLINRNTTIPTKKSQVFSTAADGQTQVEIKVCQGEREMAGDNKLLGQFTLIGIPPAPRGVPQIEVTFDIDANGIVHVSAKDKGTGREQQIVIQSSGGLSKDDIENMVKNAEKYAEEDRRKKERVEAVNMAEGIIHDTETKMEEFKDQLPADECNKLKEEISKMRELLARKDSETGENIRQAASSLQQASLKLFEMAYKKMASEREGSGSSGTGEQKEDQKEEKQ
UniProt Q15643: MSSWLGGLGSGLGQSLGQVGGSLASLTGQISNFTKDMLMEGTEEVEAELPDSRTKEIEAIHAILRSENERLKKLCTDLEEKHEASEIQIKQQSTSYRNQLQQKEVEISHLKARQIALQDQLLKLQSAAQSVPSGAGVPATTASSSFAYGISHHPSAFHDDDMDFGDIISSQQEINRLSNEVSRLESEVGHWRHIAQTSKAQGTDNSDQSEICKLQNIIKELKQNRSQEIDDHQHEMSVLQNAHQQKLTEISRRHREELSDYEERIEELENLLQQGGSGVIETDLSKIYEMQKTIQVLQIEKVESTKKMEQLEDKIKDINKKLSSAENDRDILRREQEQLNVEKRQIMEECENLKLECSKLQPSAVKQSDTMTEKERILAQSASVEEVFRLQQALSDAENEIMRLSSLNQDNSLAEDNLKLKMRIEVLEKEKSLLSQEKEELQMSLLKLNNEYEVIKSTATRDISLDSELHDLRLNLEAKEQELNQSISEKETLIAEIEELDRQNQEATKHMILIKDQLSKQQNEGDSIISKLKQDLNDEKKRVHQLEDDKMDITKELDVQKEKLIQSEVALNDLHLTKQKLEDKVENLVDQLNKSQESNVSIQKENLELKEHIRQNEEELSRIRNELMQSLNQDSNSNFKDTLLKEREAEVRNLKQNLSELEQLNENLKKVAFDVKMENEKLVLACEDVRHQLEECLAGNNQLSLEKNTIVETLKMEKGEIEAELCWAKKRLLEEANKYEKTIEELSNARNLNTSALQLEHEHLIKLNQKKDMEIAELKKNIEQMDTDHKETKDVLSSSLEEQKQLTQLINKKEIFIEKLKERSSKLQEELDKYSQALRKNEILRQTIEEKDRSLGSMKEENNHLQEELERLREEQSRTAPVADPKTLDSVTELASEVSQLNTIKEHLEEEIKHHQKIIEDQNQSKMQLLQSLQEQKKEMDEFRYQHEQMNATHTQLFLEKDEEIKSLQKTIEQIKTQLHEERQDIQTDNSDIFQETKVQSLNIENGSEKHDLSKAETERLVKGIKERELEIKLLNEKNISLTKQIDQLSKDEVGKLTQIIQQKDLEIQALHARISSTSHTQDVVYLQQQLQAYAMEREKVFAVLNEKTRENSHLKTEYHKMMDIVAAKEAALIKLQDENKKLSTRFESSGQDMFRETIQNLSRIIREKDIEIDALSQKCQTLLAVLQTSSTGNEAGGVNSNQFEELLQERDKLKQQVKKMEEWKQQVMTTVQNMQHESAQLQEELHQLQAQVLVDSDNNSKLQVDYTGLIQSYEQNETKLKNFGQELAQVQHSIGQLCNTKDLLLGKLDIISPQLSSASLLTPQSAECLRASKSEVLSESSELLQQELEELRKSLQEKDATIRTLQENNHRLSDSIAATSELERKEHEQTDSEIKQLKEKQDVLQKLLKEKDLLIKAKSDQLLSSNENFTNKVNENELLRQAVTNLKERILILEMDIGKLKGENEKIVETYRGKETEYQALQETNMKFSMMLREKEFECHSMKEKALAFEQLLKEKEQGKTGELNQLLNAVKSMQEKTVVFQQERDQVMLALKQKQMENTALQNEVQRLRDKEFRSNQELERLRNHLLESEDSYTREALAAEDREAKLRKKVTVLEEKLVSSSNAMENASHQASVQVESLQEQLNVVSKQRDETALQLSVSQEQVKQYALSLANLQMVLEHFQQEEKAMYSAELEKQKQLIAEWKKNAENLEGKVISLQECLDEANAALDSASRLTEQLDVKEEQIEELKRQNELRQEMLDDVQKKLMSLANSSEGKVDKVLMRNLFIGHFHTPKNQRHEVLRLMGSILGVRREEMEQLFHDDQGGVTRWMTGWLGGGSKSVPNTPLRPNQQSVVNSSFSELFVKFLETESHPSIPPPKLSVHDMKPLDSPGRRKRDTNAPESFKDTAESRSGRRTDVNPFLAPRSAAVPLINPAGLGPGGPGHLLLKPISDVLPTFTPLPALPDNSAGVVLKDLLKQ
UniProt O00429: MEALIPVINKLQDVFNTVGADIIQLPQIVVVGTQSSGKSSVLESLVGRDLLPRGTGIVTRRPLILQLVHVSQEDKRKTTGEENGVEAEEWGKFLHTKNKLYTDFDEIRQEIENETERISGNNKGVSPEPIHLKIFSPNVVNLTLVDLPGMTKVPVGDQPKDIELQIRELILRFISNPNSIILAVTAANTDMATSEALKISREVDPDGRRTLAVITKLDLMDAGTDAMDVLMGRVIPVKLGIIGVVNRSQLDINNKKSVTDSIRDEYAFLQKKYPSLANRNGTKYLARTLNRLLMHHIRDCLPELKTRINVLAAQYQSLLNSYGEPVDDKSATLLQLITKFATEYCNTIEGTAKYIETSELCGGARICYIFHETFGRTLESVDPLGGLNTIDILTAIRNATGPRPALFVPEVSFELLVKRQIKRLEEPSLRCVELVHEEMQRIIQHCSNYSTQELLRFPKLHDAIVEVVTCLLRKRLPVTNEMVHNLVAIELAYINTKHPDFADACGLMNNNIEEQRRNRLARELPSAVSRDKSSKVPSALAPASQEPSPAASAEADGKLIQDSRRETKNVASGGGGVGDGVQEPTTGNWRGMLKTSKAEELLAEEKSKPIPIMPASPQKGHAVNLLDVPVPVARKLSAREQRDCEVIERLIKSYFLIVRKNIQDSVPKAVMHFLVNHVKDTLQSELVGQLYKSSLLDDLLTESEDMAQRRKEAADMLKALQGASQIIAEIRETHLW
UniProt O75396: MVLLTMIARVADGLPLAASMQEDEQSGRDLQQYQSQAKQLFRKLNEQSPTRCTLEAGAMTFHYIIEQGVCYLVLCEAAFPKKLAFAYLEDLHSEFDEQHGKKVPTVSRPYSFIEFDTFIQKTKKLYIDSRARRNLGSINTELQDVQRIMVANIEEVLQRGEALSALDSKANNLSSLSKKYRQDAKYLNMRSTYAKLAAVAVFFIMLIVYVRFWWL
UniProt Q658Y4: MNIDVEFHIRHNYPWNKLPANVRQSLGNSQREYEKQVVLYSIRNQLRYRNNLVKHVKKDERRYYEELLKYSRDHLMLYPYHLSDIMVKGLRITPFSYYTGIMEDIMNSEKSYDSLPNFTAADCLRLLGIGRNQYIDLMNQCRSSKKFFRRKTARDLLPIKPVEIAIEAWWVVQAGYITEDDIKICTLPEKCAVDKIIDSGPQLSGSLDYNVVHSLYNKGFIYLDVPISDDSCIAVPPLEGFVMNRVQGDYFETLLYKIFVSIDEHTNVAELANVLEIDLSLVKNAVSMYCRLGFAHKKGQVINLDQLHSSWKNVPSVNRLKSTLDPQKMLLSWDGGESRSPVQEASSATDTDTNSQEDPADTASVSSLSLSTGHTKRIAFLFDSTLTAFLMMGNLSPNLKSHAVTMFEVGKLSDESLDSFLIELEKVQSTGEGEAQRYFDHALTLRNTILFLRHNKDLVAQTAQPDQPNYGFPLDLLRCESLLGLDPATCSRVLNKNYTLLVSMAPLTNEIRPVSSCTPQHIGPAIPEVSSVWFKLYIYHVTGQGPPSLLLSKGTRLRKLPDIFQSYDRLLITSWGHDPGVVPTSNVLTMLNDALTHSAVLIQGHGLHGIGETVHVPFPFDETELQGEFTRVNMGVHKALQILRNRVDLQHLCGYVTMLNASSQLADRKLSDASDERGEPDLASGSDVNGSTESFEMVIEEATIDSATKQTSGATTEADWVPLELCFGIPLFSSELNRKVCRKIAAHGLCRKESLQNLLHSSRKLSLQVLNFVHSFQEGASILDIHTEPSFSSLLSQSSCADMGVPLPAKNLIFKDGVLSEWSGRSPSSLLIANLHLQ
UniProt Q9NUY8: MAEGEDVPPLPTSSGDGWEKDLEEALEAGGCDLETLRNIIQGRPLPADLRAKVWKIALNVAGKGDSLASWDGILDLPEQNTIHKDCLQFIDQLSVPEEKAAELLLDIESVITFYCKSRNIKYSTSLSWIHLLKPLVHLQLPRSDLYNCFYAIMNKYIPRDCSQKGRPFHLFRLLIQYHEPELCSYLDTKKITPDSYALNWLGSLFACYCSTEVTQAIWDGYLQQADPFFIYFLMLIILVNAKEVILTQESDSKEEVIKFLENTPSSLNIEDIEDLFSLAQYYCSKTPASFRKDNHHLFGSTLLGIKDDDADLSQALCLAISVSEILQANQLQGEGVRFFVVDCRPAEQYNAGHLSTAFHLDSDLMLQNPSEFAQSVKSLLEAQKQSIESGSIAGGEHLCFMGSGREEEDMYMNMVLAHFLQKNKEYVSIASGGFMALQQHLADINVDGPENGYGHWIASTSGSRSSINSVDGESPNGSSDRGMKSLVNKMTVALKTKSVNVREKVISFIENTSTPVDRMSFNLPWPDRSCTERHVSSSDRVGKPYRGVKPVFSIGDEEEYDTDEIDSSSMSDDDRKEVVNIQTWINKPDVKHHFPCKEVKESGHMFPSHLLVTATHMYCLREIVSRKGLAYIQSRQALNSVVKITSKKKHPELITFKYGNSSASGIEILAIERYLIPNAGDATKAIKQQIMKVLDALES

Substance | binding [1] | binding [2] | binding [3]
GRP75, endogenous in 293T cells (from UniProt P38646 47-679) | binds | – | –
GMAP210, endogenous in 293T cells (from UniProt Q15643 1-1979) | – | binds | –
DRP1, endogenous in 293T cells (from UniProt O00429 1-736) | binds | – | –
SEC22B, endogenous in 293T cells (from UniProt O75396 1-215) | – | binds | –
GOLGA4, endogenous in 293T cells (from UniProt Q13439 1-2230) | binds | binds | –

Results, then the substance that gave them:

binding [1] | binding [2] | binding [3] | Substance
– | binds | binds | Hook1, endogenous in 293T cells (from UniProt Q9UJC3 1-728)
binds | binds | – | FAM91A1, endogenous in 293T cells (from UniProt Q658Y4 1-838)
binds | binds | – | TBC1D23, endogenous in 293T cells (from UniProt Q9NUY8 1-699)

Source: PMC8730729
